# Measurements reported in publication PMC5388737, “Exploring the Role of CYP3A4 Mediated Drug Metabolism in the Pharmacological Modulation of Nitric Oxide Production” (Frontiers in Pharmacology, 2017).
# Tested on: NO production in LPS stimulated RAW 264.7 macrophages
# Experiment: NO production in LPS stimulated RAW 264.7 murine macrophages (Griess assay)
# Format: cell-based
# Conditions: Mus musculus, RAW264.7, 24 h, concentrations with viability <80% rejected
# Experimental: The mouse macrophage cells, RAW264.7 (ATCC® TIB-71™) were obtained from ATCC and cultured in Dulbecco's Modified Eagle Medium (DMEM), supplemented with 10% FBS and 2 mM l-glutamine, in a humidified 5% CO2 atmosphere at 37°C. All cell handling steps were carried out using the SelecT automated cell culture system. RAW264.7 cells were seeded into 96-well plates at a density of 20 × 10^3 cells per well and grown to approximately 50% of confluence (24 h). They were cultured for another 24 h with each of the test compounds described above (5 μL of stock serial dilutions in 20% DMSO were dispensed into 190 μL of fresh medium using Perkin Elmer Evolution P3, Waltham, MA,). […]
# Test compound activities were calculated automatically using the Genedata Screener software (Genedata AG, Basel, Switzerland), and the percentage inhibition of each commercial compound was determined by Equation (1), integrated in the Genedata Screener software. Percentage of control of production of nitric oxide was: (1) Percentage of control = (Abswell − Absneg/Abspos − Absneg) ∗ 100 where Abswell is the absorbance measured per specific well; and Abspos and Absneg are the average absorbance measured for the positive (LPS/solvent vehicle) and negative controls (-LPS/solvent vehicle, respectively). […]
compound,measurement,value
"Clc1ccc(COC(Cn2ccnc2)c2ccc(Cl)cc2Cl)c(Cl)c1 (stereo not shown) [Miconazole, miconazole]",IC50,7.35 µM
